We go through 1 substance from paper PMC8327419.

Amino acid sequences for entries named in this document (tags omitted).
UniProt Q9P286: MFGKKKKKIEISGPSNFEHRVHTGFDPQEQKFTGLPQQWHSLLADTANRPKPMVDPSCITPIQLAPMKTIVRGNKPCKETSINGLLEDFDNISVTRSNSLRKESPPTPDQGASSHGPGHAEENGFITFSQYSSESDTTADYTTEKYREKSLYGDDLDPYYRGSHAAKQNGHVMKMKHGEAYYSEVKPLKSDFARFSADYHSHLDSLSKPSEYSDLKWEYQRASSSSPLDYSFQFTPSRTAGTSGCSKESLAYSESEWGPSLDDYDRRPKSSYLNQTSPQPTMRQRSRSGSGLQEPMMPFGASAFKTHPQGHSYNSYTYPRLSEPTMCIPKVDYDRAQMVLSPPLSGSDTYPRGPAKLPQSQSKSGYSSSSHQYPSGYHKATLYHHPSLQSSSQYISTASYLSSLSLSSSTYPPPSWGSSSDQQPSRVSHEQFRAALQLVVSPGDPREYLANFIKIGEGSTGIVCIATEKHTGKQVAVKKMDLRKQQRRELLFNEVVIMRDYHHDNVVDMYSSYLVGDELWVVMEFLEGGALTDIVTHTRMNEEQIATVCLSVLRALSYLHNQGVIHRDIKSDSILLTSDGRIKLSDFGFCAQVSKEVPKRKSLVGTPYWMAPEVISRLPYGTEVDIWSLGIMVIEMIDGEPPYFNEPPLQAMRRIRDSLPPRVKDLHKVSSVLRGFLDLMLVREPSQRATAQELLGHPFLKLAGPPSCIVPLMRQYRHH
UniProt P35222: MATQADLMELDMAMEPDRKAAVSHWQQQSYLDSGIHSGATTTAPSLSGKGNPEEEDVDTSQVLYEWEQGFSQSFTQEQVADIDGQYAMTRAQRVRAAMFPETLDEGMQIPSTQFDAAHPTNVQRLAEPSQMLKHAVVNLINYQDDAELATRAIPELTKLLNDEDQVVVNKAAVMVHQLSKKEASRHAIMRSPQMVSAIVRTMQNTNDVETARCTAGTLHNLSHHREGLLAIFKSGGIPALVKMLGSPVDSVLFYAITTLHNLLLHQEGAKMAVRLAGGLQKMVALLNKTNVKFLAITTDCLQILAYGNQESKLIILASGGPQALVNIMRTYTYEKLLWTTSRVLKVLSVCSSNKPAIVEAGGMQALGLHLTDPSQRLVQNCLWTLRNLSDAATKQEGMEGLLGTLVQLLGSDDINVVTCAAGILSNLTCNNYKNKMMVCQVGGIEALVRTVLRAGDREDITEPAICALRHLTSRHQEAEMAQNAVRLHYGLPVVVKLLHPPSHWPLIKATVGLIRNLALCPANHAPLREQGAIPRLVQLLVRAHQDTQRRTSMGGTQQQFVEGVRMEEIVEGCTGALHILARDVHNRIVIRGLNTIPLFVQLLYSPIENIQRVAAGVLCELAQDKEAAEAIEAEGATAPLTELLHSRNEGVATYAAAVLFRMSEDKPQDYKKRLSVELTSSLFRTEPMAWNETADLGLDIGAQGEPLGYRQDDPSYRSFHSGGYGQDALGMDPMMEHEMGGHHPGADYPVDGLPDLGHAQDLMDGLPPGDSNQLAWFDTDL

No constants are given. Whether binding was seen depends on the method and setting. Binding seen in cells or lysates may run through a third protein. Some binding calls cover weakened binding; strength is not graded here.

The assay deals with p21-Activated kinases 5 (PAK5) (human (endogenous in Hep3B)) (UniProt Q9P286). Briefly: co-IP; endogenous proteins; Hep3B and sorafenib-resistant Hep3B-SR cells lysed in IP lysis buffer with protease/phosphatase inhibitors; anti-PAK5 or mouse IgG overnight at 4 °C, Protein A/G beads, Western Blot. (Immunoblotting shows a protein as a band on a membrane.)

Regarding β-catenin (from UniProt P35222 1-781), the binding entry was “binds”.
